This assay concerns the target T1, TFIIB (wild type, TFIIB^WT) (S. cerevisiae) (UniProt P29055).
T1 sequence: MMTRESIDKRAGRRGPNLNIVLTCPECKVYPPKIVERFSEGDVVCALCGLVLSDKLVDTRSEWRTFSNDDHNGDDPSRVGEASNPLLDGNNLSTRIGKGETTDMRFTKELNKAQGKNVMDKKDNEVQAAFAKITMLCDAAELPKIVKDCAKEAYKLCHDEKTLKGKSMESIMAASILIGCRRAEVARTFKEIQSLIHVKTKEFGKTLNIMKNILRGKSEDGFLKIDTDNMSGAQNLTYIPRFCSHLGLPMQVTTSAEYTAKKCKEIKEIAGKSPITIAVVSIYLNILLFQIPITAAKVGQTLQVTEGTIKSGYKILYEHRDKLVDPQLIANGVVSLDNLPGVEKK
Kind of assay: affinity purification with mass spectrometry; TFIIB affinity purified from chromatin (and soluble) fractions of S. cerevisiae cells; purified fractions subjected to mass spectrometry; TFIIB-normalized spectral abundance factor (BNSAF); four replicates.

Chains of the proteins cited; added tags and fusions are not shown.
UniProt P39081: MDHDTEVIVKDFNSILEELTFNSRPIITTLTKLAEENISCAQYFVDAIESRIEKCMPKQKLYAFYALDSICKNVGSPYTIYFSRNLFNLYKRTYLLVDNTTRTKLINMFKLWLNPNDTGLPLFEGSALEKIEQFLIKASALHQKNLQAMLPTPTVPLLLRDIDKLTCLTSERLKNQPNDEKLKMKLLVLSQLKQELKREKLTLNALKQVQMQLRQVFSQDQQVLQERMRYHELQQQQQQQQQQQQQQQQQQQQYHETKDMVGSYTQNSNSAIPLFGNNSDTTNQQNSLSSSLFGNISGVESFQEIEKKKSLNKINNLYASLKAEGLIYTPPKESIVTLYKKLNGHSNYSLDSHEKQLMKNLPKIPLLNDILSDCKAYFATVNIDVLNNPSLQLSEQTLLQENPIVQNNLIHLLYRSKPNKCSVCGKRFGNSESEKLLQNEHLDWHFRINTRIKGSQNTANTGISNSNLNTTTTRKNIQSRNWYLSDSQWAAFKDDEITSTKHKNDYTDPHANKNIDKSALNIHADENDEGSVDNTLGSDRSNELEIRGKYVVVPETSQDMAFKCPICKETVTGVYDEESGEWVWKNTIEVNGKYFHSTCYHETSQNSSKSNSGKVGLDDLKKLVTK

These are yes or no findings as the source states them, for the method shown. Binding seen in cells or lysates may run through a third protein. Here binding means that the protein was enriched with, or labelled near, the bait; the list need not be complete.

With Pcf11 (from UniProt P39081 1-626), the binding entry is given as “binds”.

B1: Rna15 (protein, UniProt P25299 1-296)
chain: MNRQSGVNAGVQNNPPSRVVYLGSIPYDQTEEQILDLCSNVGPVINLKMMFDPQTGRSKGYAFIEFRDLESSASAVRNLNGYQLGSRFLKCGYSSNSDISGVSQQQQQQYNNINGNNNNNGNNNNNSNGPDFQNSGNANFLSQKFPELPSGIDVNINMTTPAMMISSELAKKPKEVQLKFLQKFQEWTRAHPEDAVSLLELCPQLSFVTAELLLTNGICKVDDLIPLASRPQEEASATNNNSVNEVVDPAVLNKQKELLKQVLQLNDSQISILPDDERMAIWDLKQKALRGEFGAF
On to B1, for which the binding entry is listed as “binds”.

B2: Clp1 (protein, UniProt Q08685 1-445)
chain: MASLPGIDEHTTSEELITGDNEWHKLVIPKGSDWQIDLKAEGKLIVKVNSGIVEIFGTELAVDDEYTFQNWKFPIYAVEETELLWKCPDLTTNTITVKPNHTMKYIYNLHFMLEKIRMSNFEGPRVVIVGGSQTGKTSLSRTLCSYALKFNAYQPLYINLDPQQPIFTVPGCISATPISDILDAQLPTWGQSLTSGATLLHNKQPMVKNFGLERINENKDLYLECISQLGQVVGQRLHLDPQVRRSGCIVDTPSISQLDENLAELHHIIEKLNVNIMLVLCSETDPLWEKVKKTFGPELGNNNIFFIPKLDGVSAVDDVYKRSLQRTSIREYFYGSLDTALSPYAIGVDYEDLTIWKPSNVFDNEVGRVELFPVTITPSNLQHAIIAITFAERRADQATVIKSPILGFALITEVNEKRRKLRVLLPVPGRLPSKAMILTSYRYLE
As to B2, the binding result was “binds”.

B3: Rna14 (protein, UniProt P25298 1-677)
chain: MSSSTTPDLLYPSADKVAEPSDNIHGDELRLRERIKDNPTNILSYFQLIQYLETQESYAKVREVYEQFHNTFPFYSPAWTLQLKGELARDEFETVEKILAQCLSGKLENNDLSLWSTYLDYIRRKNNLITGGQEARAVIVKAFQLVMQKCAIFEPKSSSFWNEYLNFLEQWKPFNKWEEQQRIDMLREFYKKMLCVPFDNLEKMWNRYTQWEQEINSLTARKFIGELSAEYMKARSLYQEWLNVTNGLKRASPINLRTANKKNIPQPGTSDSNIQQLQIWLNWIKWERENKLMLSEDMLSQRISYVYKQGIQYMIFSAEMWYDYSMYISENSDRQNILYTALLANPDSPSLTFKLSECYELDNDSESVSNCFDKCTQTLLSQYKKIASDVNSGEDNNTEYEQELLYKQREKLTFVFCVYMNTMKRISGLSAARTVFGKCRKLKRILTHDVYVENAYLEFQNQNDYKTAFKVLELGLKYFQNDGVYINKYLDFLIFLNKDSQIKTLFETSVEKVQDLTQLKEIYKKMISYESKFGNLNNVYSLEKRFFERFPQENLIEVFTSRYQIQNSNLIKKLELTYMYNEEEDSYFSSGNGDGHHGSYNMSSSDRKRLMEETGNNGNFSNKKFKRDSELPTEVLDLLSVIPKRQYFNTNLLDAQKLVNFLNDQVEIPTVESTKSG
For the molecule B3, the binding entry is on record as “binds”.

For the origin of these results see publication PMC11276024.
